Source: US20200055918A1, “NOVEL MINOR HISTOCOMPATIBILITY ANTIGENS AND USES THEREOF” (UNIVERSITÉ DE MONTRÉAL, priority 2017, published 2020)

Tests used:
[1] = system: genes coding for the identified MiHAs; experiment: Ratio of MiHA gene expression in bone marrow compared to skin, public RNA-Seq data; set-up: species or system human; settings: relative BM/skin expression of the MiHA-coding transcripts
[2] = system: MiHA-coding genes in AML samples; experiment: Expression (RPKM) of MiHA-coding genes in 179 AML samples, TCGA RNA-Seq; set-up: species or system human; settings: mean MiHA gene expression in primary AML samples from TCGA

Row | Substance | BM/skin ratio [1] | AMLs (RPKM) [2] [RPKM] | BM/skin ratio ([1]; listed as ZWINT-1G/R)
1 | APRR/CPPPPP (APRRPPPPP) [MiHA No. 12] | 15.58 | 32.22 | –
2 | PPSGLRLLP/LL (PPSGLRLLPL) [MiHA No. 49] | 3.88 | 114.06 | –
3 | VEEADGN/HKQW (VEEADGNKQW) [MiHA No. 78] | 2.06 | 13.41 | –
4 | KLYSEA/GKTK (KLYSEAKTK) [MiHA No. 36] | 81.00 | 0.70 | –
5 | EEINLQR/INI (EEINLQRNI) [MiHA No. 19] | – | 6.09 | –
6 | RREDV/IVLGR (RREDVVLGR) [MiHA No. 60] | 1221.00 | 1.58 | –
7 | MPSHLRNT/ILLM (MPSHLRNTLLM) [MiHA No. 46] | 3.64 | 34.04 | –
8 | LRIQ/HQREQL (LRIQQREQL) [MiHA No. 44] | 8.07 | 31.03 | –
9 | AELQS/APLAA (AELQSRLAA) [MiHA No. 7] | 2.59 | 30.74 | –
10 | GRA/EGIVARL (GRAGIVARL) [MiHA No. 30] | 2.66 | 15.09 | –
11 | LPRVC/RGTTL (LPRVCGTTL) [MiHA No. 42] | 11.00 | 0.372 | –
12 | SQA/SEIEQKI (SQAEIEQKI) [MiHA No. 67] | 2.39 | 49.38 | –
13 | QELDG/RVFQKL [MiHA No. 52] | – | 16.48 | 2.80 and 2.61
14 | EEADGN/HKQWW (EEADGNKQWW) [MiHA No. 17] | 2.06 | 13.41 | –
15 | RTA/TDNFDDILK [MiHA No. 61] | 2.28 | 36.60 | –
16 | QENQDPR/GPW (QENQDPRRW) [MiHA No. 53] | 4.289 | 8.74 | –
17 | EE/GRGENTSY (EERGENTSY) [MiHA No. 16] | 9.49 | 7.48 | –
18 | EELLAVG/SKF [MiHA No. 22] | 4.27 | 19.89 | –
19 | G/DPRPSPTRSV (GPRPSPTRSV) [MiHA No. 28] | 25.52 | 2.97 | –
20 | EEALGLYH/QW (EEALGLYHW) [MiHA No. 18] | 8.24 | 41.48 | –
21 | RANLRAT/A/NKL (RANLRATKL) [MiHA No. 56] | 5.21 | 28.06 | –
22 | DRFVARK/R/M/TL (DRFVARKL) [MiHA No. 15] | 3.06 | 8.60 | –
23 | APPAEKA/VPV (APPAEKAPV) [MiHA No. 8] | 22.47 | 11.70 | –

Row | Substance | BM/skin ratio [1] | AMLs (RPKM) [2] [RPKM] | BM/skin ratio ([1]; listed as ZWINT-1G/R)
24 | KRVGASYER/W/G [MiHA No. 37] | 2.66 | 23.59 | –
25 | TLN/SERFTSY (TLNERFTSY) [MiHA No. 72] | 7.24 | 51.39 | –
26 | APRES/NAQAI (APRESAQAI) [MiHA No. 10] | 5.16 | 19.89 | –
27 | QE/DLIGKKEY (QELIGKKEY) [MiHA No. 50] | 3.47 | 40.82 | –
28 | KEFEDD/GIINW [MiHA No. 34] | 292.97 | 9.83 | –
29 | R/GIFASRLYY (RIFASRLYY) [MiHA No. 55] | 13.73 | 1.61 | –
30 | DRANRFEY/*L (DRANRFEYL) [MiHA No. 14] | 2.05 | 35.80 | –
31 | EEIPV/ISSHYF (EEIPVSSHYF) [MiHA No. 21] | 9.01 | 10.41 | –
32 | KEINEKSN/SIL (KEINEKSNIL) [MiHA No. 35] | 3.49 | 42.29 | –
33 | EEIPV/ISSHY (EEIPVSSHY) [MiHA No. 20] | 18.27 | 10.41 | –
34 | TPVDDR/SSL (TPVDDRSL) [MiHA No. 75] | 2.08 | 7.21 | –
35 | EPQGS/FGRQGNSL (EPQGSGRQGNSL) [MiHA No. 26] | 9.49 | 7.48 | –
36 | APREP/QFAHSL (APREPFAHSL) [MiHA No. 9] | 2.37 | 4.03 | –
37 | MPSHLRNT/ILL (MPSHLRNTLL) [MiHA No. 45] | 3.64 | 34.04 | –
38 | ELQA/SRLAAL (ELQARLAAL) [MiHA No. 25] | 2.07 | 30.74 | –
39 | EE/KEQSQSPW (EEEQSQSRW) [MiHA No. 24] | 5.49 | 21.37 | –
40 | SRVLQN/KVAF (SRVLQNVAF) [MiHA No. 68] | 292.97 | 9.83 | –
41 | YPRAGS/RKPP (YPRAGSKPP) [MiHA No. 80] | 3.06 | 8.60 | –
42 | SESKIR/CVLL (SESKIRVLL) [MiHA No. 64] | 3.42 | 7.33 | –
43 | TAKQKLDPA/V [MiHA No. 71] | 5.16 | 19.89 | –
44 | T/PARPQSSAL (TARPQSSAL) [MiHA No. 70] | 5.81 | 4.42 | –
45 | SVSKLST/NPK (SVSKLSTPK) [MiHA No. 69] | 2.16 | 16.59 | –
46 | APRPFGSVF/S [MiHA No. 11] | 2.00 | 5.47 | –

Row | Substance | BM/skin ratio [1] | AMLs (RPKM) [2] [RPKM] | BM/skin ratio ([1]; listed as ZWINT-1G/R)
47 | RPPG/EGSGPL (RPPGGSGPL) [MiHA No. 57] | 4.42 | 25.51 | –
48 | NSEEHSAR/KY (NSEEHSARY) [MiHA No. 47] | 3.63 | 36.86 | –
49 | AAQTARQP/HPK (AAQTARQPPK) [MiHA No. 3] | 11.00 | 0.37 | –
50 | SPRGN/KLPLLL (SPRGNLPLLL) [MiHA No. 66] | 10.08 | 12.69 | –
51 | YTDSSSI/VLNY (YTDSSSILNY) [MiHA No. 81] | 4.35 | 10.92 | –
52 | TPRPIQSSL/P [MiHA No. 74] | 6.85 | 46.39 | –
53 | KY/HMTAVVKLF (KYMTAVVKLF) [MiHA No. 40] | 23.17 | 54.37 | –
54 | AQTARQP/HPK (AQTARQPPK) [MiHA No. 13] | 11.00 | 0.37 | –
55 | S/TVLKPGNSK [MiHA No. 62] | 3.16 | 86.40 | –
56 | ESKIR/CVLL (ESKIRVLL) [MiHA No. 27] | 3.52 | 7.33 | –
57 | VYNNIMRH/RYL (VYNNIMRHYL) [MiHA No. 79] | 3.29 | 7.46 | –
58 | PH/PRYRPGTVAL (PHRYRPGTVAL) [MiHA No. 48] | 5.62 | 0.52 | –
59 | QEN/DIQ/HNLQL (QENIQNLQL) [MiHA No. 51] | 3.33 | 10.85 | –
60 | TVY/CHSPVSR (TVYHSPVSR) [MiHA No. 77] | 3.98 | 22.00 | –
61 | LPSKRVSL/I [MiHA No. 43] | 5.16 | 19.89 | –
62 | IYPQV/LLHSL (IYPQVLHSL) [MiHA No. 33] | 2.28 | 36.60 | –
63 | SEESAVPE/KPSW [MiHA No. 63] | 2.69 | 15.83 | –
64 | LENGAH/RAY (LENGAHAY) [MiHA No. 41] | 2.52 | 34.42 | –
65 | EESAVPE/KPSW [MiHA No. 23] | 2.69 | 15.83 | –
66 | TPRNTYKMTSL/V [MiHA No. 73] | 5.16 | 19.89 | –
67 | SPD/ESSTPKL (SPDSSTPKL) [MiHA No. 65] | 3.45 | 4.03 | –
68 | KY/HMTAVVKL (KYMTAVVKL) [MiHA No. 39] | 23.17 | 54.37 | –

Values joined by “and” are separate entries in the source; they are usually repeats but may differ in a detail not shown here. Equal entries are not always repeated. The expression values are mRNA levels of the gene; the protein chain is shown to identify it.
